Results from publication PMC12620516.
No constants are given. Whether binding was seen depends on the method and setting. Binding seen in cells or lysates may run through a third protein. Some binding calls cover weakened binding; strength is not graded here.

Protein sequences, listed by entry. Tags and fused reporters are not part of them. Residues count along the entry.
UniProt Q8K2C6, residues 37-310: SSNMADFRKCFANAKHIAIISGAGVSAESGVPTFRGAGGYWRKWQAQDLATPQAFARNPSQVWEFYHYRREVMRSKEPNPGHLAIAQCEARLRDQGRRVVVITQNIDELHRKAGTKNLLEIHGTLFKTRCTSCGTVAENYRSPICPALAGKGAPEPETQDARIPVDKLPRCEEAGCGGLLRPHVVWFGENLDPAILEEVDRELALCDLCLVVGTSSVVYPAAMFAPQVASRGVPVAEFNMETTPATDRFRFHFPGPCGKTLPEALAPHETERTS

Target: Sirtuin 5 (UniProt Q8K2C6)
Experiment: co-IP; HEK293T cells co-transfected with Sirt5 and Slc25a4 plasmids for 48 h; IP lysis buffer; overnight at 4 °C with anti-Sirt5 and anti-Slc25a4 antibodies; protein A/G magnetic beads; Western blot

B1: Solute Carrier Family 25 Member 4 (protein, UniProt P48962 1-298)
chain: MGDQALSFLKDFLAGGIAAAVSKTAVAPIERVKLLLQVQHASKQISAEKQYKGIIDCVVRIPKEQGFLSFWRGNLANVIRYFPTQALNFAFKDKYKQIFLGGVDRHKQFWRYFAGNLASGGAAGATSLCFVYPLDFARTRLAADVGKGSSQREFNGLGDCLTKIFKSDGLKGLYQGFSVSVQGIIIYRAAYFGVYDTAKGMLPDPKNVHIIVSWMIAQSVTAVAGLVSYPFDTVRRRMMMQSGRKGADIMYTGTLDCWRKIAKDEGANAFFKGAWSNVLRGMGGAFVLVLYDEIKKYV
  binding: binds
